## Binding screen against folded nucleic acids

From ROBIN, a set of small-molecule microarray screens (doi:10.1002/anie.202211358).

Targets (5′ to 3′):
PreQ1: PreQ1 riboswitch RNA pseudoknot, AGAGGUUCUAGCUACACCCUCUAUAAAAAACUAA. From B. subtilis. About 24,000 compounds screened, about 170 hits.
SAM-II: SAM-II riboswitch RNA pseudoknot, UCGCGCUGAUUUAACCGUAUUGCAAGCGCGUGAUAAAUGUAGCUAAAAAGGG. About 21,000 compounds screened, about 200 hits.
TPP: TPP riboswitch RNA three-way junction, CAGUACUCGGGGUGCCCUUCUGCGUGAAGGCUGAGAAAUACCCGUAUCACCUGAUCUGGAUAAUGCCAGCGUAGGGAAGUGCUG. About 24,000 compounds screened, about 160 hits.

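The test is a small-molecule microarray: each compound is printed twice on a reactive slide, and binding shows as fluorescence of the labelled oligonucleotide after washing. For the PreQ1, TPP and SAM-II riboswitches the laboratory earlier reported (doi:10.1038/s41467-019-09493-3) 1 µM RNA, 2 h, and a rule that included a mean Z-score above 3 (spot signal-to-noise against the whole library), a score well above that on a control array, and duplicate spots agreeing (coefficient of variation under 100). The data file gives only the calls; its cut-offs may differ, and compounds hitting several targets are kept. These are primary screening calls, not affinities; a compound without a hit may have attached poorly or may still bind in solution.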
“active” means called a hit, “inactive” means screened and not called a hit.
This is an unselected part of the compounds tested.
A target missing from an entry has no call listed here.
A dash means that no call is listed here.

| # | Compound | PreQ1 | SAM-II | TPP |
|---|---|---|---|---|
| 1 | `O=C(CN1CC2(CCNCC2)OC1=O)N1CCN(c2nccs2)CC1` | inactive | inactive | inactive |
| 2 | `Nc1cc(C(=O)N2CCC(c3n[nH]c(=O)n3Cc3ccccc3)CC2)n[nH]1` | inactive | inactive | inactive |
| 3 | `OC1CN(CCC(F)(F)F)CCN(C2Cc3ccccc3C2)C1` (centres unmarked) | inactive | inactive | inactive |
| 4 | `CC(=O)Nc1ccc(C2=CC(c3ccc(Cl)cc3)n3nc(CCCO)nc3N2)cc1` (centres unmarked) | inactive | inactive | inactive |
| 5 | `Cc1ccc([N+](=O)[O-])cc1S(=O)(=O)N(C)N=Cc1cnc2ccc(Br)cn12` | inactive | inactive | inactive |
| 6 | `CC1=C(c2ccc(C)cc2)S(=O)(=O)N=C1NCc1ccc(Cl)cc1` | inactive | - | inactive |
| 7 | `Cc1cccc(CNCc2c(C(=O)O)n(C)c3ccccc23)c1` | inactive | - | inactive |
| 8 | `Cc1cnc(N2CCN(Cc3cn(CCO)nc3C)CC2)nc1N(C)C` | inactive | inactive | inactive |
| 9 | `O=C(NCCO[N+](=O)[O-])c1cccnc1` | inactive | inactive | inactive |
| 10 | `CC1=C(CCN2CCNC(C(=O)NC3CC3)C2)C(C)(C)CCC1` (centres unmarked) | inactive | inactive | inactive |
| 11 | `Cc1cc(Nc2cc(C(F)(F)F)ccc2Cl)n2nc(C)nc2n1` | inactive | inactive | inactive |
| 12 | `CCc1nnc2c(NC3CCN(Cc4ccccc4)CC3)nc3ccccc3n12` | inactive | - | inactive |
| 13 | `O=C(NCC[C@H]1CCCN1)c1ccc(S(=O)(=O)NCC(F)F)cc1` | inactive | inactive | inactive |
| 14 | `O=S(=O)(N[C@H]1CC[C@H]1NC1CCCC1)c1ccc(Cl)s1` | inactive | inactive | inactive |
| 15 | `O=C(NCc1cc2n(n1)CCCNC2)c1cnc(-c2ccccn2)nc1` | inactive | inactive | inactive |
| 16 | `COc1ccc(OCC(O)Cn2nc(C)cc2C)cc1` (centres unmarked) | inactive | inactive | inactive |
| 17 | `CC(=O)N1CCN(Cc2ccccc2C(=O)O)CC(O)C1` (centres unmarked) | inactive | inactive | inactive |
| 18 | `OC(CN1CCN(CC=Cc2ccccc2)CC1)Cn1c2ccccc2c2ccccc21` (centres unmarked) | inactive | inactive | inactive |
| 19 | `COc1cc(CNc2ncc(-c3ccccc3)n2C)ccc1O` | inactive | inactive | inactive |
| 20 | `O=C(NCc1cc2n(n1)CCNC2)C(Cc1ccccc1)n1cnnn1` (centres unmarked) | inactive | inactive | inactive |
| 21 | `O=C(O)C(=O)Nc1cccc(-c2nnn[nH]2)c1` | inactive | inactive | inactive |
| 22 | `CC1=C(C(=O)Nc2cc3cn[nH]c3cc2F)C(c2ccc(Cl)cc2F)N=C(c2ccnc(Cl)c2)N1` (centres unmarked) | inactive | inactive | inactive |
| 23 | `COCC(C)NCCCc1nc2cc(F)ccc2[nH]1` (centres unmarked) | inactive | inactive | inactive |
| 24 | `CCOc1ccc([C@@H]2C[C@H](c3ccc(OC)c(OC)c3)n3nc(N)nc3N2)cc1` | inactive | inactive | inactive |
| 25 | `OC(CSc1nc2ccccc2s1)Cn1c2ccccc2c2ccccc21` (centres unmarked) | inactive | inactive | inactive |
| 26 | `Cc1ccc(C(C)C)c(OCC(O)CN2CCN(c3ccc(F)cc3)CC2)c1` (centres unmarked) | inactive | inactive | inactive |
| 27 | `CS(=O)c1ccc(-c2nc(-c3ccc(F)cc3)c(-c3ccncc3)[nH]2)cc1` (centres unmarked) | inactive | inactive | inactive |
| 28 | `COc1ccc(C(=O)Oc2ccc3c(c2)C(C)=CC(C)(C)N3)cc1` | inactive | inactive | inactive |
| 29 | `Cc1nc(C(=O)N2CCNC(c3ccccc3)C2)cs1` (centres unmarked) | inactive | inactive | inactive |
| 30 | `COc1ccccc1CCCNC1CSCCSC1` | inactive | inactive | inactive |
| 31 | `O=C1C(Cc2nc3ccccc3c(=O)n2CCCO)c2ccccc2N1Cc1ccccc1` (centres unmarked) | inactive | - | inactive |
| 32 | `COc1ccccc1NCC(O)Cn1c2c(c3cc(C)ccc31)CCCC2` (centres unmarked) | inactive | inactive | inactive |
| 33 | `Nc1cccc(N2CCn3c(nc4cc(Cl)ccc43)C2)c1` | inactive | - | inactive |
| 34 | `CSc1nccc(N2CCC(NCCc3nc(C)cc(=O)[nH]3)CC2)n1` | inactive | inactive | inactive |

Once more, the final 2:

* Nc1cccc(N2CCn3c(nc4cc(Cl)ccc43)C2)c1 : PreQ1: inactive; TPP: inactive
* CSc1nccc(N2CCC(NCCc3nc(C)cc(=O)[nH]3)CC2)n1 : PreQ1: inactive; SAM-II: inactive; TPP: inactive